The supplement of paper PMC10849652
The other results are listed elsewhere or left out.

Protein sequences, listed by entry. Tags and fused reporters are not part of them. Lines headed by an entry give the natural chain unless they say otherwise; changes in a name come on top.
UniProt Q9Y2U8: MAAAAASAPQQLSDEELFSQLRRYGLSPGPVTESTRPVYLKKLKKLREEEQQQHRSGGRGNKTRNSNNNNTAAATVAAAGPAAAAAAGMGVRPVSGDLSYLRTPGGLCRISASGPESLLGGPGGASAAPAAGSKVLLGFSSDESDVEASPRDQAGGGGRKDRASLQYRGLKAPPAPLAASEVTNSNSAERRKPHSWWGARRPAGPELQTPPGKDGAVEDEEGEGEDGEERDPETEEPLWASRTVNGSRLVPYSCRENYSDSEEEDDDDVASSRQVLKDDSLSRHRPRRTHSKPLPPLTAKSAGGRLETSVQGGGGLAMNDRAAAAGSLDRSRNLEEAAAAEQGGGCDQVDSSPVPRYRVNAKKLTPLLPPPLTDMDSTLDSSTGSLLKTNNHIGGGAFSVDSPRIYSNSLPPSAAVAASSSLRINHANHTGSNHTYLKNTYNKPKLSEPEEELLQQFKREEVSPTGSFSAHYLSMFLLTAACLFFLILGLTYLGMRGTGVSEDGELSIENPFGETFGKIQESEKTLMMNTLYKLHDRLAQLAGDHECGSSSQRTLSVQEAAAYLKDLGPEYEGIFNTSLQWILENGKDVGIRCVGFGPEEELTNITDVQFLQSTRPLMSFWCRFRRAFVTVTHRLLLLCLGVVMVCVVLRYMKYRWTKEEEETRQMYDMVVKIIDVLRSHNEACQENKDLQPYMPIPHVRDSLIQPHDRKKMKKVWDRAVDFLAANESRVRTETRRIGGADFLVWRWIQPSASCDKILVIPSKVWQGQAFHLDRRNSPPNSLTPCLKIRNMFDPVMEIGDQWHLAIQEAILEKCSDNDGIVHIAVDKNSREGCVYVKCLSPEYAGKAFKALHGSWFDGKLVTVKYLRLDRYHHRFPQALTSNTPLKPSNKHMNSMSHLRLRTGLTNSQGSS
UniProt O00214: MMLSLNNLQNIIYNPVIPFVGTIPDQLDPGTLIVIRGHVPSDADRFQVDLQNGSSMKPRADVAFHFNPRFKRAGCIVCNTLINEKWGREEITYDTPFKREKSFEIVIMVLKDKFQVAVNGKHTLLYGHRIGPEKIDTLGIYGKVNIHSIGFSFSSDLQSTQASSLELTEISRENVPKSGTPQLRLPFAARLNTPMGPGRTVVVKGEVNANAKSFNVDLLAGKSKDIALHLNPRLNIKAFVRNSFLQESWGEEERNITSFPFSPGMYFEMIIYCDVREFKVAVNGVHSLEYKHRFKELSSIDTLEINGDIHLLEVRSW
UniProt Q6YP21: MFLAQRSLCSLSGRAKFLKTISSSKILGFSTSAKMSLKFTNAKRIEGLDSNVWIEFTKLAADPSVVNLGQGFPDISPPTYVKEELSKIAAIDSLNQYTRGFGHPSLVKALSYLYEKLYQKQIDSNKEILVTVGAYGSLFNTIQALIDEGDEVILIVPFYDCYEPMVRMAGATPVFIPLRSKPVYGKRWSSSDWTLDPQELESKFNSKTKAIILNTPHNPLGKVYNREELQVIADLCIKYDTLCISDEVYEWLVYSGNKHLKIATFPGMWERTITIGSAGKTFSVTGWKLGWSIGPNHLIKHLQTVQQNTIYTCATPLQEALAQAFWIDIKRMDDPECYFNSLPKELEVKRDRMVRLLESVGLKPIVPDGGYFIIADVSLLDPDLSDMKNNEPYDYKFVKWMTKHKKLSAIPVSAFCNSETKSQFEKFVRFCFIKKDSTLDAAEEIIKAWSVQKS
UniProt Q9H6V9: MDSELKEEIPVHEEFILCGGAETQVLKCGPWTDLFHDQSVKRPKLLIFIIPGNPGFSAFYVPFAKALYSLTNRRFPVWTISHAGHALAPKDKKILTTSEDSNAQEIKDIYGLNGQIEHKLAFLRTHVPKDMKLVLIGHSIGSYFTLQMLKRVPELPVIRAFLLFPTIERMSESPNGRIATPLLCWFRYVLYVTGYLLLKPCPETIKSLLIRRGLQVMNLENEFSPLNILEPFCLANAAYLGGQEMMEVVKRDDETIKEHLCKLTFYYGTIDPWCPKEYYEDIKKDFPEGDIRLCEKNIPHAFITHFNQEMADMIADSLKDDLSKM
UniProt P11279: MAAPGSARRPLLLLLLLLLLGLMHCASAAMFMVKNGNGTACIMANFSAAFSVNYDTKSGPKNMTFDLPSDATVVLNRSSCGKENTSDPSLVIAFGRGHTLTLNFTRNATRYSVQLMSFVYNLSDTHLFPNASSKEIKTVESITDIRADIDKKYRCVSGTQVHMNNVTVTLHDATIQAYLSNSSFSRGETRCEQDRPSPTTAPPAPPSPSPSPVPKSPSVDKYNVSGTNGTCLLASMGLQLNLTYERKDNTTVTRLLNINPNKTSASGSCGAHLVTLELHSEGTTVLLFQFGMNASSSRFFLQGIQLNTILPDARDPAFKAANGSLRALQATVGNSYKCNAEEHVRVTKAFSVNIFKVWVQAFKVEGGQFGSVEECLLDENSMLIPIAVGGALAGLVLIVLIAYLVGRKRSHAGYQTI
UniProt O60294: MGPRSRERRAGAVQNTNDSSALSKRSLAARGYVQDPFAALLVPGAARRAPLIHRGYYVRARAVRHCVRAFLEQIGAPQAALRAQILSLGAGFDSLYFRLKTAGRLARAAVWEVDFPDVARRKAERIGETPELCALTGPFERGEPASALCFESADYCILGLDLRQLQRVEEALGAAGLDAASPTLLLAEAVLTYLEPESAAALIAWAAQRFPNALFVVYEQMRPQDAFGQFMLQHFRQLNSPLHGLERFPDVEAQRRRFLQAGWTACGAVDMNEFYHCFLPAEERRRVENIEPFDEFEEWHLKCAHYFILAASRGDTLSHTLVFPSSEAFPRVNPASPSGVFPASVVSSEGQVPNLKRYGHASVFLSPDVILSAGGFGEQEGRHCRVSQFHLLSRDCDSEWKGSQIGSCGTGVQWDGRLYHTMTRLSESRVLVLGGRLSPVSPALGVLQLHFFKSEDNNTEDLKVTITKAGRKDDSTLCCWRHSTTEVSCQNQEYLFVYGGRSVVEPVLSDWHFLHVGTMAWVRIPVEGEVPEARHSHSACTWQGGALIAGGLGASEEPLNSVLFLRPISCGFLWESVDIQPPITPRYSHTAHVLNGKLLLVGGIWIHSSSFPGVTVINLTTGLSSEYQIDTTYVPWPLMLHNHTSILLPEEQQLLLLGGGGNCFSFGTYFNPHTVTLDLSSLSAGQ
UniProt Q15031: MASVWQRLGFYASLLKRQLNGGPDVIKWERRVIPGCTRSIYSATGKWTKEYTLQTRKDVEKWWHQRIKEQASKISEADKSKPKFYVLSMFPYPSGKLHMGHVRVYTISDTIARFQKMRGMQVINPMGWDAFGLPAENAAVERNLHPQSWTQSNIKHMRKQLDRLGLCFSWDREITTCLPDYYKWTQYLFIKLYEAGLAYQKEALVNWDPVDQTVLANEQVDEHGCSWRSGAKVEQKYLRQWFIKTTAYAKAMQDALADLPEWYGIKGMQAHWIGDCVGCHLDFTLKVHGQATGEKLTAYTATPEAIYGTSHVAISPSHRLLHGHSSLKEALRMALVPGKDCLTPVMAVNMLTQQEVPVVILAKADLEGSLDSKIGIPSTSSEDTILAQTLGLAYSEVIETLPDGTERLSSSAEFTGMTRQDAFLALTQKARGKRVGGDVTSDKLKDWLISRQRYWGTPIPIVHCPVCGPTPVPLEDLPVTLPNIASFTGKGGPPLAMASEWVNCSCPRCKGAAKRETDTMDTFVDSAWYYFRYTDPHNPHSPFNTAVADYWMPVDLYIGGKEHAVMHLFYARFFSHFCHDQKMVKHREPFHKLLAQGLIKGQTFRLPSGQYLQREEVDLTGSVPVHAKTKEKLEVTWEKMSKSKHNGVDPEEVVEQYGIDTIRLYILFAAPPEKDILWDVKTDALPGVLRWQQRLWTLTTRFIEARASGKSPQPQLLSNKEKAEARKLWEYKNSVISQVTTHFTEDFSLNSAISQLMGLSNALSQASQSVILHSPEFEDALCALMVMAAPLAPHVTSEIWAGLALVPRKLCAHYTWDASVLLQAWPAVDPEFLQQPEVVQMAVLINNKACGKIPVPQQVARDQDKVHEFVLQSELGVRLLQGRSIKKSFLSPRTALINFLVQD
UniProt Q6ZV70: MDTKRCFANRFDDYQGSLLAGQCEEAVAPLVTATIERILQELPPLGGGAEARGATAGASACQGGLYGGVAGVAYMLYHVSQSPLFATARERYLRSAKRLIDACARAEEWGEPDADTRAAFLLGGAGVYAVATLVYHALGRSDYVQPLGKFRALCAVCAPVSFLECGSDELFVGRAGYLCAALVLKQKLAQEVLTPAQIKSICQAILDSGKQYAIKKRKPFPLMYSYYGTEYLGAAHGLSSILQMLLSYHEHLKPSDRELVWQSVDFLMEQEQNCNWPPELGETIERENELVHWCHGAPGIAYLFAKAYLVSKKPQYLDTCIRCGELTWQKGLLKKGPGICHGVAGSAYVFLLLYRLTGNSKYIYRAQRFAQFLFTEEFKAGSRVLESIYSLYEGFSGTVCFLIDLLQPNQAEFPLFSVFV
UniProt O43766: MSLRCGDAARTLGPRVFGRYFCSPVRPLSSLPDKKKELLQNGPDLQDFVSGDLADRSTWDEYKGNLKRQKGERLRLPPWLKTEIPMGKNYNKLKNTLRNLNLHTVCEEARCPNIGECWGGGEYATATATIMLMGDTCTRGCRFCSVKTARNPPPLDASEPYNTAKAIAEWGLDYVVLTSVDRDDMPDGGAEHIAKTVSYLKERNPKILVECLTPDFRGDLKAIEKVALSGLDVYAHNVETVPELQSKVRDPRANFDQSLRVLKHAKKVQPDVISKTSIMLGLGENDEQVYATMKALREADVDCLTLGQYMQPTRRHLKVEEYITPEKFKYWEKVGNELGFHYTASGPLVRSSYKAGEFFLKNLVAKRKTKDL
UniProt Q9C0E8: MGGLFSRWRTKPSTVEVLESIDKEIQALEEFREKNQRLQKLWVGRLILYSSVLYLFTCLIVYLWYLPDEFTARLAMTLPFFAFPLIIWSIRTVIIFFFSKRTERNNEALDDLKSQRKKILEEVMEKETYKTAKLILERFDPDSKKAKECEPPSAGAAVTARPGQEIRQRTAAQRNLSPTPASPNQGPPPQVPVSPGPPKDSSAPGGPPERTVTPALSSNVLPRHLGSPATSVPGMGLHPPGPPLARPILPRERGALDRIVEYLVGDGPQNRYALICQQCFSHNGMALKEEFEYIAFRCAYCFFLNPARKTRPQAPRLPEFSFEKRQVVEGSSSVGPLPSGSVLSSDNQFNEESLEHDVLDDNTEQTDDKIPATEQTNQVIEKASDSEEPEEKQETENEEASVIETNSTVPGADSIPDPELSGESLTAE
UniProt P07864: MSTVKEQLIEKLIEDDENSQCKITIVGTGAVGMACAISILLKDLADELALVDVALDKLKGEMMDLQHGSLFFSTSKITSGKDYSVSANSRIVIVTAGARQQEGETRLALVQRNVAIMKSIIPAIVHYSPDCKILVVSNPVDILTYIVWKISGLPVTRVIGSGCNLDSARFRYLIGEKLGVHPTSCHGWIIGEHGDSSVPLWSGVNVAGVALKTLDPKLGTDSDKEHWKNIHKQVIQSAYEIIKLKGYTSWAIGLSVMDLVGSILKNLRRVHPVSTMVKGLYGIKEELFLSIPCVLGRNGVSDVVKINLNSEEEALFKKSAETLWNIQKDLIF
UniProt Q96GY3: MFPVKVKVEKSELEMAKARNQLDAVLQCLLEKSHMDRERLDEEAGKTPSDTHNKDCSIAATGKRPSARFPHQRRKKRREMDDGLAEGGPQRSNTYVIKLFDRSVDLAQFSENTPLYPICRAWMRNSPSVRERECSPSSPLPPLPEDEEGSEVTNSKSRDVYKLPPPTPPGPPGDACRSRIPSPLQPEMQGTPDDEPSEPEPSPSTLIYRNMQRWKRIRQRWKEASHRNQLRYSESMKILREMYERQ
UniProt Q5TKA1: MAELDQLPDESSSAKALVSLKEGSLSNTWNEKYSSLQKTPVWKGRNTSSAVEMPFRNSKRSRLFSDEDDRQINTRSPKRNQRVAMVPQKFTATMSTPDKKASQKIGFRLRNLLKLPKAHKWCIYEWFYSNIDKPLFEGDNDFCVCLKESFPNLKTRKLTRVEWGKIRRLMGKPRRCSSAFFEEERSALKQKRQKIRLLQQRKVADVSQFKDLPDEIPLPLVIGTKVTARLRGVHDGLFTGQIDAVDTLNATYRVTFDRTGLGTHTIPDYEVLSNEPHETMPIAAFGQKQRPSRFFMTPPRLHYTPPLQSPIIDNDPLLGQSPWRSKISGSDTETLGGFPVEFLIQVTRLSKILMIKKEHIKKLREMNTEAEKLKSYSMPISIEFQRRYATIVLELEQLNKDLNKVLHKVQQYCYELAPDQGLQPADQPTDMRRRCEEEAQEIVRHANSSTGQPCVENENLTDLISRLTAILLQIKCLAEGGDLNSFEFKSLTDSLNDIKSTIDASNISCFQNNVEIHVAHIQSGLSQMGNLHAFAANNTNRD
UniProt Q9GZZ8: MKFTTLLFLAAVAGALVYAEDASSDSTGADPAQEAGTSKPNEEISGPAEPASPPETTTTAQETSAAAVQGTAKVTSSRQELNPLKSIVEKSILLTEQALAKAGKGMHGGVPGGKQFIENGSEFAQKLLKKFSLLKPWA

Experiments:
Experiment in all cases: log2 fold change, soluble protein after heating vs DMSO (PISA); higher = thermal stabilisation; K562 cells, 10 uM, 30 min; active = over 0.2 and 3.5 SD of the protein, either way, in both replicates (recomputed)
[1] = compound: CS(=O)(=O)c1ccc(-c2cnc(N)c(C(=O)Nc3ccccc3)n2)cc1
Method in brief: (§1)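 K562 cells at 2×10^6 cells/mL were given 10 μM compound for 30 min. Aliquots then went through 3 min of heating across 48°C-58°C, were pooled, and were extracted in PBS with 0.5% NP-40 at 4°C, and the supernatant after 21,000xg for 90 min was quantified by TMTpro 16plex LC-MS/MS with channel sums equalised. Thermal stability relative to control samples, from duplicates, is given as log2 fold change.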

[2] = compound: C[C@@H](Oc1cc(-c2cnn(C3CCNCC3)c2)cnc1N)c1c(Cl)ccc(F)c1Cl [crizotinib]
Method in brief: as §1

[3] = compound: C[C@@H]1COCCN1C2=NC(=NC(=C2)C3(CC3)S(=O)(=O)C)C4=C5C=CNC5=CC=C4
Method in brief: as §1

[4] = compound: C[C@H](C1=CC=C(C=C1)C(=O)NC2=C3C=CNC3=NC=C2)N
Method in brief: as §1

[5] = compound: Cc1cc(Nc2cc(CN3CCOCC3)c3nc(C)c(Cc4ccc(Cl)cc4F)n3n2)n[nH]1 [gandotinib]
Method in brief: as §1

[6] = compound: Cc1cc(SCc2sc(-c3ccc(C(F)(F)F)cc3)nc2C)ccc1OCC(=O)O
Method in brief: as §1

[7] = compound: Cc1ccc(-n2nc(C(C)(C)C)cc2NC(=O)Nc2ccc(OCCN3CCOCC3)c3ccccc23)cc1 [doramapimod]
Method in brief: as §1

[8] = compound: Cc1ccc(C(=O)N(CCCN)[C@@H](c2nc3cc(Cl)ccc3c(=O)n2Cc2ccccc2)C(C)C)cc1 [ispinesib]
Method in brief: as §1

[9] = compound: C[C@H](Nc1ncnc2nc[nH]c12)c1cc2cccc(Cl)c2c(=O)n1-c1ccccc1 [duvelisib]
Method in brief: as §1

[10] = compound: Cc1cc(Nc2cc(N3CCN(C)CC3)nc(Sc3ccc(NC(=O)C4CC4)cc3)n2)n[nH]1 [tozasertib]
Method in brief: as §1

Measured: log2 fold change

LEMD3 (UniProt Q9Y2U8)
inactive: [1] 0.072 | [2] -0.12 | [3] -0.084 | [4] -0.016 | [5] 0.006 | [6] 0.114 | [7] -0.002 | [8] -0.095

LGALS8 isoform 2 (UniProt O00214)
inactive: [1] -0.002 | [2] -0.023 | [3] -0.255 | [4] 0.323 | [5] -0.144 | [6] 0.204 | [7] 0.146

KYAT3 (UniProt Q6YP21)
inactive: [1] 0.012 | [2] 0.026 | [3] 0.01 | [4] -0.023 | [9] 0.004 | [5] 0.018 | [10] -0.019 | [6] -0.055 | [7] -0.016 | [8] -0.005

LRRC40 (UniProt Q9H9A6)
inactive: [1] 0.052 | [2] -0.141 | [3] 0.104 | [4] 0.138 | [9] 0.041 | [5] -0.095 | [10] 0.028 | [6] 0.129 | [7] 0.032 | [8] -0.068

LDAH isoform 2 (UniProt Q9H6V9)
active: [2] -0.308 | [8] -0.438
inactive: [1] 0.052 | [3] 0.064 | [4] -0.035 | [5] -0.001 | [6] 0.204 | [7] 0.019

LIN28B (UniProt Q6ZN17)
inactive: [1] -0.138 | [2] 0.003 | [3] -0.289 | [4] 0.151 | [9] -0.088 | [5] 0.01 | [10] 0.016 | [6] -0.046 | [7] 0.105 | [8] -0.059

LMAN1 (UniProt P49257)
inactive: [1] 0.042 | [2] -0.047 | [3] -0.039 | [4] 0.011 | [9] -0.01 | [5] 0.005 | [10] 0.002 | [6] -0.021 | [7] 0.025 | [8] -0.111

LGALS1 (UniProt P09382)
inactive: [1] -0.044 | [2] 0.076 | [3] 0.084 | [4] -0.091 | [9] 0.022 | [5] -0.008 | [10] 0.038 | [6] -0.035 | [7] 0.002 | [8] 0.037

LAMP1 (UniProt P11279)
inactive: [1] -0.025 | [2] -0.023 | [3] -0.002 | [4] -0.011 | [9] -0.074 | [5] -0.036 | [10] -0.03 | [6] -0.091 | [7] 0.059 | [8] 0.144

LRFN4 (UniProt Q6PJG9)
inactive: [1] 0.123 | [2] -0.023 | [3] 0.062 | [4] 0.067 | [9] 0.125 | [5] -0.149 | [10] -0.094 | [6] -0.145 | [7] 0.054 | [8] -0.05

LCMT2 (UniProt O60294)
inactive: [1] -0.03 | [2] -0.006 | [3] -0.032 | [4] -0.004 | [9] -0.09 | [5] 0.566 | [6] -0.022 | [7] 0.111

LARP1 (UniProt Q6PKG0)
inactive: [1] -0.04 | [2] -0.097 | [3] -0.172 | [4] 0.134 | [5] 0.026 | [6] 0.01 | [7] 0.06 | [8] -0.166

LARS2 (UniProt Q15031)
inactive: [1] -0.021 | [2] 0.013 | [3] 0.049 | [4] -0.045 | [9] -0.004 | [5] -0.052 | [10] -0.011 | [6] -0.001 | [7] -0.023 | [8] -0.001

LANCL3 (UniProt Q6ZV70)
inactive: [1] 0.217 | [2] -0.023 | [3] 0.134 | [4] -0.049 | [9] -0.011 | [6] 0.197 | [7] -0.013

LLGL1 (UniProt Q15334)
inactive: [1] -0.122 | [2] -0.587 | [3] -0.046 | [4] 0.018 | [9] 0.044 | [10] 0.135 | [6] -0.049 | [7] 0.032

LIAS (UniProt O43766)
inactive: [1] 0.035 | [2] 0.03 | [3] 0.039 | [4] 0.075 | [5] 0.086 | [6] -0.08 | [7] 0 | [8] -0.24

LNPK (UniProt Q9C0E8)
inactive: [1] -0.016 | [2] 0.077 | [3] 0.007 | [4] -0.036 | [5] -0.022 | [6] -0.085 | [7] -0.044 | [8] 0.022

L2HGDH (UniProt Q9H9P8)
inactive: [1] 0.04 | [2] -0.081 | [3] 0.124 | [4] -0.025 | [5] 0.024 | [6] 0.039 | [7] -0.02 | [8] -0.083

LDHC (UniProt P07864)
inactive: [1] 0.074 | [3] -0.059

LPL (UniProt P06858)
inactive: [1] 0.005 | [2] -0.03 | [4] 0.04 | [9] 0.049 | [5] 0.053 | [10] 0.041 | [6] -0.035 | [7] -0.021

Copied from the results shown (2 entries):
LDHC (UniProt P07864)
inactive: [1] 0.074 | [3] -0.059

LPL (UniProt P06858)
inactive: [1] 0.005 | [2] -0.03 | [4] 0.04 | [9] 0.049 | [5] 0.053 | [10] 0.041 | [6] -0.035 | [7] -0.021

Following part:

LIN37 (UniProt Q96GY3)
inactive: [1] 0.204 | [2] -0.105 | [5] 0.121 | [7] -0.042

LIN9 isoform 2 (UniProt Q5TKA1)
inactive: [1] 0.031 | [2] 0.061 | [3] 0.088 | [4] 0.115 | [10] -0.31 | [7] 0.105 | [8] -0.169

LARGE2 (UniProt Q8N3Y3)
inactive: [1] 0.018 | [2] 0.077 | [7] 0.055

LRPPRC (UniProt P42704)
inactive: [1] 0.025 | [2] -0.822 | [3] 0.154 | [4] 0.065 | [5] -0.175 | [6] 0.481 | [7] -0.172 | [8] -0.416

LACRT (UniProt Q9GZZ8)
inactive: [1] -0.095 | [3] 0.074 | [4] -0.231 | [8] 1.15

LNPEP (UniProt Q9UIQ6)
inactive: [1] 0.028 | [2] 0.015 | [3] 0.023 | [4] -0.053 | [5] 0.028 | [6] -0.008 | [7] -0.013 | [8] -0.039

LMBRD1 (UniProt Q9NUN5)
inactive: [1] -0.003 | [3] 0.111 | [4] -0.14 | [5] -0.137 | [6] -0.031
active: [8] -0.61
